Measured values published in patent US20240065261A1, “PENETRATING CRYOPROTECTION AGENTS AND METHODS OF MAKING AND USING SAME” (The Research Foundation for The State University of New York, priority 2020, published 2024).
Some entries share one result that the patent states for a list of compounds.

Test system: NIH-3T3 cells
Test: Cytotoxicity, CCK-8 cell viability after 48 h incubation
Conditions: at 10 mM

| Compound | Cell viability relative to control groups |
| --- | --- |
| CCCC(=O)OC[C@@H](O)[C@@H](O)[C@H](O)[C@H](O)COC(=O)CCC [MannBa2] | less than 40% |
| CCCC(=O)OC[C@@H](O)[C@@H](O)[C@H](O)[C@@H](O)COC(=O)CCC [SorbBa2] | less than 40% |
